No constants are given. Whether binding was seen depends on the method and setting. In cells and extracts the contact can be indirect. A yes stands for co-enrichment or nearness to the bait. Other partners may have been found.
What was measured:
[1] = biological target: Flag-KBTBD4^P311PP, pcDNA3.1(+) construct (human) (UniProt Q9NVX7); assay: affinity purification with mass spectrometry; HEK293T transfected with Flag-KBTBD4 wild type or mutants; 100 nM MLN4924 for 4 h; ANTI-FLAG M2 Affinity Gel, eluted with 3xFLAG peptide; tryptic digest, LC-MS/MS
[2] = biological target: Flag-KBTBD4^R313PRR, pcDNA3.1(+) construct (human) (UniProt Q9NVX7); assay: as above

The chains behind the UniProt entries cited, without tags or fusion partners. Where a name states a change or a piece, a line headed by the entry shows the natural chain unless it says otherwise.
UniProt Q9NVX7: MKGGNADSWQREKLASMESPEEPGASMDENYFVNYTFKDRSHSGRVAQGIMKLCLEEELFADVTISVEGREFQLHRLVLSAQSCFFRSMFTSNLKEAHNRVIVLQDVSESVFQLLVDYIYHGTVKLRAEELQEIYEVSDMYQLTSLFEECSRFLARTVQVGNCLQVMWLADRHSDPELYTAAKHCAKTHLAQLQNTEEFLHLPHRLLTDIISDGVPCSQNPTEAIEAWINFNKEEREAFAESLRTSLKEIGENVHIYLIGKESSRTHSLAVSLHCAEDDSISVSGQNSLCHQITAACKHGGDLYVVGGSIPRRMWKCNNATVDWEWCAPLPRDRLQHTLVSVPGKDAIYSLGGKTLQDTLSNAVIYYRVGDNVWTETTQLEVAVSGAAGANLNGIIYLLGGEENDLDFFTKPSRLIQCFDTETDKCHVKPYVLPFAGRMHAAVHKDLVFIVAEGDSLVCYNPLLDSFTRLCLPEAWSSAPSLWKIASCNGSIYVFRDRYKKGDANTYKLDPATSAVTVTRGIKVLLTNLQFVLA

B1: Genetic Suppressor Element 1 (GSE1) (protein, UniProt Q14687 1-1217)
chain: MKGMSHEPKSPSLGMLSTATRTTATVNPLTPSPLNGALVPSGSPATSSALSAQAAPSSSFAAALRKLAKQAEEPRGSSLSSESSPVSSPATNHSSPASTPKRVPMGPIIVPPGGHSVPSTPPVVTIAPTKTVNGVWRSESRQDAGSRSSSGGRERLIVEPPLPQEKAGGPAIPSHLLSTPYPFGLSPSSVVQDSRFPPLNLQRPVHHVVPPSTVTEDYLRSFRPYHTTDDLRMSSLPPLGLDPATAAAYYHPSYLAPHPFPHPAFRMDDSYCLSALRSPFYPIPTPGSLPPLHPSAMHLHLSGVRYPPELSHSSLAALHSERMSGLSAERLQMDEELRREREREREREREREADREREKEREREREKEREQEKEREREKERERELERQREQRAREKELLAAKALEPSFLPVAELHGLRGHATEERGKPSEQLTPTRAEKLKDAGLQAPKPVQHPLHPVPTPHHTVPSLISNHGIFSLPSSSAATALLIQRTNEEEKWLARQRRLRQEKEDRQSQVSEFRQQVLEQHLDMGRPPVPAEAEHRPESTTRPGPNRHEPGGRDPPQHFGGPPPLISPKPQLHAAPTALWNPVSLMDNTLETRRAESHSLHSHPAAFEPSRQAAVPLVKVERVFCPEKAEEGPRKREPAPLDKYQPPPPPPREGGSLEHQPFLPGPGPFLAELEKSTQTILGQQRASLPQAATFGELSGPLKPGSPYRPPVPRAPDPAYIYDEFLQQRRRLVSKLDLEERRRREAQEKGYYYDLDDSYDESDEEEVRAHLRCVAEQPPLKLDTSSEKLEFLQLFGLTTQQQKEELVAQKRRKRRRMLRERSPSPPTIQSKRQTPSPRLALSTRYSPDEMNNSPNFEEKKKFLTIFNLTHISAEKRKDKERLVEMLRAMKQKALSAAVADSLTNSPRDSPAVSLSEPATQQASLDVEKPVGVAASLSDIPKAAEPGKLEQVRPQELSRVQELAPASGEKARLSEAPGGKKSLSMLHYIRGAAPKDIPVPLSHSTNGKSKPWEPFVAEEFAHQFHESVLQSTQKALQKHKGSVAVLSAEQNHKVDTSVHYNIPELQSSSRAPPPQHNGQQEPPTARKGPPTQELDRDSEEEEEEDDEDGEDEEEVPKRKWQGIEAVFEAYQEHIEEQNLERQVLQTQCRRLEARHYSLSLTAEQLSHSVAELRSQKQKMVSERERLQAELDHLRKCLALPAMHWPRGYLKGYPR
[1]
  binding: binds
[2]
  binding: binds

B2: HMG20B (protein, UniProt Q9P0W2 1-317)
chain: MSHGPKQPGAAAAPAGGKAPGQHGGFVVTVKQERGEGPRAGEKGSHEEEPVKKRGWPKGKKRKKILPNGPKAPVTGYVRFLNERREQIRTRHPDLPFPEITKMLGAEWSKLQPTEKQRYLDEAEREKQQYMKELRAYQQSEAYKMCTEKIQEKKIKKEDSSSGLMNTLLNGHKGGDCDGFSTFDVPIFTEEFLDQNKAREAELRRLRKMNVAFEEQNAVLQRHTQSMSSARERLEQELALEERRTLALQQQLQAVRQALTASFASLPVPGTGETPTLGTLDFYMARLHGAIERDPAQHEKLIVRIKEILAQVASEHL
[1]
  binding: binds
[2]
  binding: binds

Reference: article PMC9525703
